# Source: the supplement of paper PMC10849652
# By UniProt entry, the sequences of proteins in these tests, tags left out. Where a name states a change or a piece, a line headed by the entry shows the natural chain unless it says otherwise.
# UniProt Q99828: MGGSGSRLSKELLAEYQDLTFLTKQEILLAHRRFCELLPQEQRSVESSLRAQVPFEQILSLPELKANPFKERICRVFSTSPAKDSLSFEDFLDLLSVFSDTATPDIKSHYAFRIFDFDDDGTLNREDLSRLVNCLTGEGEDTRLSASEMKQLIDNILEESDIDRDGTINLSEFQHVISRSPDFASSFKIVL
# UniProt Q9NPF2: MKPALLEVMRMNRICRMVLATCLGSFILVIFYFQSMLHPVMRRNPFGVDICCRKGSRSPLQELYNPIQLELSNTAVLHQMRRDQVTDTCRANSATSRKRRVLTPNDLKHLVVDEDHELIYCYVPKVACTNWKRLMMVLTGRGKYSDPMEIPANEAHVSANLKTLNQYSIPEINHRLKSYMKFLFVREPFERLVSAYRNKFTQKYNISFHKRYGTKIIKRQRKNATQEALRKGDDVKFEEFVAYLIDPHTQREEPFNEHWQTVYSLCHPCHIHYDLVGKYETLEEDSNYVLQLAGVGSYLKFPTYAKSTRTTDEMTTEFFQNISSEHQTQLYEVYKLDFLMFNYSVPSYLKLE
# UniProt Q99653: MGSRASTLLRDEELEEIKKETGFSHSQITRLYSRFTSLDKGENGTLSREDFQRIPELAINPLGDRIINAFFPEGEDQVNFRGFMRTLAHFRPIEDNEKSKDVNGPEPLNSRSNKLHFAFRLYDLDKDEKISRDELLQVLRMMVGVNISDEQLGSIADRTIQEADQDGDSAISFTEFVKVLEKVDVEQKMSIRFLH
# UniProt Q8IWV2: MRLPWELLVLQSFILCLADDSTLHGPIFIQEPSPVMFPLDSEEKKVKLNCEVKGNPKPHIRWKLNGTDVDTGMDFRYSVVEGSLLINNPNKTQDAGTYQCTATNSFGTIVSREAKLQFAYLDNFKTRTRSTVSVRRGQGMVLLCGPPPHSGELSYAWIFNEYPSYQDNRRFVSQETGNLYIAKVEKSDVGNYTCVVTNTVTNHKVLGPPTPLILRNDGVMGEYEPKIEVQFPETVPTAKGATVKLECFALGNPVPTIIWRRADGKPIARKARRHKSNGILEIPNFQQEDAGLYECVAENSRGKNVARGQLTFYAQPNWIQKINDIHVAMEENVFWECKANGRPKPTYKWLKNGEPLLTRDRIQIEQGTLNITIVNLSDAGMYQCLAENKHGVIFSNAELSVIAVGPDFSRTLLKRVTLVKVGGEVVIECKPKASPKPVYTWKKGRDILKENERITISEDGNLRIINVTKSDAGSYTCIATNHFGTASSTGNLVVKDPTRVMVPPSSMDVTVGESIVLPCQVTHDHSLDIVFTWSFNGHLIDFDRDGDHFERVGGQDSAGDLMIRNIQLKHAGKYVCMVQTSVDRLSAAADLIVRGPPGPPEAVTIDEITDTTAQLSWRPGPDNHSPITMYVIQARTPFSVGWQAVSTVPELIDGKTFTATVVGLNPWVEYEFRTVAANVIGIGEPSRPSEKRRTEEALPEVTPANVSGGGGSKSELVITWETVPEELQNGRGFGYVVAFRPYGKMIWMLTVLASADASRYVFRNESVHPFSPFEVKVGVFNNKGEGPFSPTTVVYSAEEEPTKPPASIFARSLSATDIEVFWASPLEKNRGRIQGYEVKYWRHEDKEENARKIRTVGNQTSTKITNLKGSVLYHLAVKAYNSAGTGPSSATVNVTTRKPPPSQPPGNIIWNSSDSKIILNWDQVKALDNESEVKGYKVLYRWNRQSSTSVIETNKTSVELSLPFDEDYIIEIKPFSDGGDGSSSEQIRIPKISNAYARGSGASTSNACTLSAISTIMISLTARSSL
# UniProt O95628: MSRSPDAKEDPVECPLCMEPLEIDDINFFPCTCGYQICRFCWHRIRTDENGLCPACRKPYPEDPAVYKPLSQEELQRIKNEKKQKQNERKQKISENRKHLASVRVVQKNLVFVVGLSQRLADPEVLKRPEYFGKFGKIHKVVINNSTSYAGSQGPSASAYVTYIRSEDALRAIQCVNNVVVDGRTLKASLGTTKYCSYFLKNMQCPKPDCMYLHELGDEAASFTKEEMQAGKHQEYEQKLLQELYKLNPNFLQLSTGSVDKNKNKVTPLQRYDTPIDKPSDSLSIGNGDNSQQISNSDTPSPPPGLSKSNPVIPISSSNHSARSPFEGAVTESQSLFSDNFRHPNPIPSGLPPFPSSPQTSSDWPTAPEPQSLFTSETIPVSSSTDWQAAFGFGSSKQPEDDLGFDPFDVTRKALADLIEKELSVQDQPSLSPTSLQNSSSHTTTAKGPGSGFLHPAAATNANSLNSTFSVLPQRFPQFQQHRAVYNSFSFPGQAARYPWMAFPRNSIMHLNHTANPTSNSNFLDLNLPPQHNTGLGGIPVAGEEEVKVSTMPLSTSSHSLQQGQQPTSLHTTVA
# UniProt P12277: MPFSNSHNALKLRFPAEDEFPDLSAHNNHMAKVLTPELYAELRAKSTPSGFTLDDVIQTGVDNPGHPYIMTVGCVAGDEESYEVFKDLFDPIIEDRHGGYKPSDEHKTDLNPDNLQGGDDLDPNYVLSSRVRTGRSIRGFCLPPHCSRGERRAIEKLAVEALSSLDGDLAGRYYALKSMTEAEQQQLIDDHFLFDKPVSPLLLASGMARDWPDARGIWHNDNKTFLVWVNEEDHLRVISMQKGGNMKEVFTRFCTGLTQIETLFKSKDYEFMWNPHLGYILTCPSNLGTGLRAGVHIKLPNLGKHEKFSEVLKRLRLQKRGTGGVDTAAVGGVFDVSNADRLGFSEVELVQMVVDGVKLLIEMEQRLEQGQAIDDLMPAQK
# UniProt Q8NCH0: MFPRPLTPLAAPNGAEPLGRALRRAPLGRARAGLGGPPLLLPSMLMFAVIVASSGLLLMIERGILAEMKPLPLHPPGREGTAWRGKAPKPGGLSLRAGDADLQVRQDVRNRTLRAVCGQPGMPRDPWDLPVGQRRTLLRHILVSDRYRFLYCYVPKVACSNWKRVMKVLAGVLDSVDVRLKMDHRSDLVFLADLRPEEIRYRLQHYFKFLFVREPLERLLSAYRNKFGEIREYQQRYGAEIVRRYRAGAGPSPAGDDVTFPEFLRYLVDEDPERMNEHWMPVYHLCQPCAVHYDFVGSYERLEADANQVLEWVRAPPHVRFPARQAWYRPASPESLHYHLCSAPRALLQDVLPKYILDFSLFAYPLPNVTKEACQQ
# UniProt Q9ULV3: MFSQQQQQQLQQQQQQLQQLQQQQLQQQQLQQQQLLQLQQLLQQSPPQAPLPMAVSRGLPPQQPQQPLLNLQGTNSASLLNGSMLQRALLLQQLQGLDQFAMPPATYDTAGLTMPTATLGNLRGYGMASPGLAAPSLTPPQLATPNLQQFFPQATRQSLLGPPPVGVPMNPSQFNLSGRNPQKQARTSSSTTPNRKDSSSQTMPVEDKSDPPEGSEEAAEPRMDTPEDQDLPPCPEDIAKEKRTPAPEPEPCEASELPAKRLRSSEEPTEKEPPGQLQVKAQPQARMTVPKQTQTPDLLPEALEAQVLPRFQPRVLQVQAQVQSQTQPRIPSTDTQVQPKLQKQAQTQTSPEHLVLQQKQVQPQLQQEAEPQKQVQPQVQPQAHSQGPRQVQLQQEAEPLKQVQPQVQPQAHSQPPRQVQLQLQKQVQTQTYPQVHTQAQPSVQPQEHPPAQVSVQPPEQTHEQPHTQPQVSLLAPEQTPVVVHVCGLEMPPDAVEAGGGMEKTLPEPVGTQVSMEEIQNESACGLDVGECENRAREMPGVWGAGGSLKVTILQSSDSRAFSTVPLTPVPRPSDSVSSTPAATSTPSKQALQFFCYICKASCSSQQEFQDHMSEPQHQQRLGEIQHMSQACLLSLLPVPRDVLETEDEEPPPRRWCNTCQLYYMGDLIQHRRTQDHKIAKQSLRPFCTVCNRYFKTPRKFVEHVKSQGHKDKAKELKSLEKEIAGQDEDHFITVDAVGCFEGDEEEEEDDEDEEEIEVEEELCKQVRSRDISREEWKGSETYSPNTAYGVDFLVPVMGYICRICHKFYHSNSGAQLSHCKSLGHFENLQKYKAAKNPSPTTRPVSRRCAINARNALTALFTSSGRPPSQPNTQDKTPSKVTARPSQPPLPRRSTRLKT
# UniProt Q96BR5: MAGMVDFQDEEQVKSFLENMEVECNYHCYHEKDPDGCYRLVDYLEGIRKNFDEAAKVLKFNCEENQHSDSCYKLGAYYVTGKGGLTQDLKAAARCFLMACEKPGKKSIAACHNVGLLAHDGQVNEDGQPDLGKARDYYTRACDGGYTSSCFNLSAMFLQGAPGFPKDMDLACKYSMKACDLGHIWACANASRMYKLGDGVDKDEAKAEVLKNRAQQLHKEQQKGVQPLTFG
# UniProt Q5JTJ3: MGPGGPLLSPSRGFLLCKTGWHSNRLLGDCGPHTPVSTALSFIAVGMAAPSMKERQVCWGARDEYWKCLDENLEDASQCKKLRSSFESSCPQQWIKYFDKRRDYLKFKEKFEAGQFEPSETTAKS
# UniProt Q9NX76: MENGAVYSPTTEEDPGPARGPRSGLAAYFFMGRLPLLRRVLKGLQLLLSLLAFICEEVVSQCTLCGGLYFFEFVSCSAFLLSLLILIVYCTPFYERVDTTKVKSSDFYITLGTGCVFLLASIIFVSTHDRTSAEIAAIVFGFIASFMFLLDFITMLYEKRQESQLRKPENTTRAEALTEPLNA
# UniProt Q96KP4: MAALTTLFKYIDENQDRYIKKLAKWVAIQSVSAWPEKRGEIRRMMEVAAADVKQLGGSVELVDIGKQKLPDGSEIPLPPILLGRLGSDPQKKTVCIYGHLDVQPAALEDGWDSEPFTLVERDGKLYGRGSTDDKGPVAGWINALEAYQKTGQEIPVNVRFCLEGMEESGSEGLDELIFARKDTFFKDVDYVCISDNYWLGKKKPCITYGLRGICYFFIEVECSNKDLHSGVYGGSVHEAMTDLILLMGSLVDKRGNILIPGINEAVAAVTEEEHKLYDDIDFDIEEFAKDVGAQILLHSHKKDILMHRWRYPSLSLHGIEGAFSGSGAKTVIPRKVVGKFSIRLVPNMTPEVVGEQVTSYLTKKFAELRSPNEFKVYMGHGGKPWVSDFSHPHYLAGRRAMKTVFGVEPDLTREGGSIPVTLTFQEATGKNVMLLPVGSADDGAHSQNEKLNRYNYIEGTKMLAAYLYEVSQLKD
# UniProt Q86X95: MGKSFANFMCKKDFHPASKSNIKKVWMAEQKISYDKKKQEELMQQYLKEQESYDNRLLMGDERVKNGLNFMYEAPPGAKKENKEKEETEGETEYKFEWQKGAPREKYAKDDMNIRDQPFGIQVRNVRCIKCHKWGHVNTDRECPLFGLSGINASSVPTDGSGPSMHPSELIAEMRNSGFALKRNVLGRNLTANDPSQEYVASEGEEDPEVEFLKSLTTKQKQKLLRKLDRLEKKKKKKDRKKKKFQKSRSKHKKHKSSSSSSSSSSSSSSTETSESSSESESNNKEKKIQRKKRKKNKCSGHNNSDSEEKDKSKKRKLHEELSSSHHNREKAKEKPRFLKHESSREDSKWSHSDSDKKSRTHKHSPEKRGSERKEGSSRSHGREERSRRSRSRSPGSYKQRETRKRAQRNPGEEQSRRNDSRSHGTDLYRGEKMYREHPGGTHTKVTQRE
# UniProt Q8N1G2: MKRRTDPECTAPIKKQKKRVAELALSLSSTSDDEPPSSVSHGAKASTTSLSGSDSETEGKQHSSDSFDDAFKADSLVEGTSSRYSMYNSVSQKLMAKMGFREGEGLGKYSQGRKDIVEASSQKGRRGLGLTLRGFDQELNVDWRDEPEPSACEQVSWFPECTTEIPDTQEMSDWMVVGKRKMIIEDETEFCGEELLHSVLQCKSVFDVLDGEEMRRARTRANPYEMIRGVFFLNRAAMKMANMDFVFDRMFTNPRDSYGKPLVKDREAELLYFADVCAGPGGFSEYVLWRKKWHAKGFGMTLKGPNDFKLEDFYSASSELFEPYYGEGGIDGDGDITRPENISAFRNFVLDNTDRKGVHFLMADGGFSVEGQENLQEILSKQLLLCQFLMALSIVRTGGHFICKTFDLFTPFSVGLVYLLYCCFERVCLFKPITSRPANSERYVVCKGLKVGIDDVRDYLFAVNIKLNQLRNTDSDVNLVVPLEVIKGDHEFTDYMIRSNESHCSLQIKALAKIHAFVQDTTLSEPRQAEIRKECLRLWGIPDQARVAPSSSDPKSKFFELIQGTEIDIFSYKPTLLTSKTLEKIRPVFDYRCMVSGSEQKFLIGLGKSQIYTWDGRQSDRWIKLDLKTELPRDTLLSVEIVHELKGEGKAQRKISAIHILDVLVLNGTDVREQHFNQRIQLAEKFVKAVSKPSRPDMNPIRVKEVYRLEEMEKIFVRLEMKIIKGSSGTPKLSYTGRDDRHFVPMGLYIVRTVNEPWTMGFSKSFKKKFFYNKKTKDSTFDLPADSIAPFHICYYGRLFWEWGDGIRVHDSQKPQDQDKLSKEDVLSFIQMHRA
# This is one part of the list. Residues, ends and D or L forms follow the SMILES beside them. *: point of attachment. Cbz = O=C(OCc1ccccc1)*
# Experiments:
# Test in all cases: log2 fold change, soluble protein after heating vs DMSO (PISA); higher = thermal stabilisation; K562 cells, 10 uM, 30 min; active = over 0.2 and 3.5 SD of the protein, either way, in both replicates (recomputed)
# erlotinib = compound: C#Cc1cccc(Nc2ncnc3cc(OCCOC)c(OCCOC)cc23)c1 [erlotinib]
# Procedure, shortened: (§1)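 K562 cells at 2×10^6 cells/mL were treated for 30 min with 10 μM compound, and aliquots were heated for 3 min over 48°C-58°C before pooling. Extraction used PBS with 0.5% NP-40 at 4°C, and soluble protein was the supernatant after 21,000xg for 90 min, measured by TMTpro 16plex LC-MS/MS with channel sums equalised. Thermal stability values, relative to control samples and from duplicates, are log2 fold changes.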
# [1] = compound: C/C(=N\NC(=O)C1=CC(=CC=C1)S(=O)(=O)N2CCOCC2)/C3=C(C=CC(=C3)Cl)O
# Procedure, shortened: as §1
# [2] = compound: C1=CC(=C(C=C1Cl)C2=NC3=NC=CN=C3C(=N2)NC4=CC=NC=C4)F
# Procedure, shortened: as §1
# [3] = compound: C1=CC(=CC=C1C2=NC3=C(N2)C=C(C=C3)C(=O)N)OC4=CC=C(C=C4)Cl
# Procedure, shortened: as §1
# [4] = compound: C1=CC2=C(C=CC(=C2)/C=C\3/C(=O)NC(=NCC4=CC=CS4)S3)N=C1
# Procedure, shortened: as §1
# [5] = compound: C1=CC2=NC=CN=C2C=C1/C=C/3\C(=O)NC(=O)S3
# Procedure, shortened: as §1
# [6] = compound: C1=CC=C(C=C1)C2=NC(=C(N2)C3=CC=NC=C3)C4=CC(=C(C=C4)Cl)O
# Procedure, shortened: as §1
# [7] = compound: C1=CC=C2C(=C1)C3=NNC4=CC=CC(=C43)C2=O
# Procedure, shortened: as §1
# [8] = compound: C1CCN(C1)C(=O)NC2=CC=CC(=C2)NC3=NC=C(C(=N3)NCCC4=CN=CN4)Br
# Procedure, shortened: as §1
# [9] = compound: C1CN(CCC1(CC2=CC=C(C=C2)Cl)N)C3=NC=NC4=C3C=CN4
# Procedure, shortened: as §1
# IRAK-1-4 Inhibitor I = compound: C1COCCN1CCN2C3=CC=CC=C3N=C2NC(=O)C4=CC(=CC=C4)[N+](=O)[O-] [IRAK-1-4 Inhibitor I]
# Procedure, shortened: as §1
# ibrutinib = compound: C=CC(=O)N1CCC[C@@H](n2nc(-c3ccc(Oc4ccccc4)cc3)c3c(N)ncnc32)C1 [ibrutinib]
# Procedure, shortened: as §1
# [10] = compound: CC(=O)c1cnc2ccc(-c3cc(Cl)c(O)c(Cl)c3)nc2c1N[C@H]1CC[C@H](CN(C)C)CC1
# Procedure, shortened: as §1
# ralimetinib = compound: CC(C)(C)Cn1c(N)nc2ccc(-c3[nH]c(C(C)(C)C)nc3-c3ccc(F)cc3)nc21 [ralimetinib]
# Procedure, shortened: as §1
# [11] = compound: CC(C)(O)CC(=O)NCCn1ccc2ncnc(Nc3ccc(Oc4cccc(C(F)(F)F)c4)c(Cl)c3)c21
# Procedure, shortened: as §1
# [12] = compound: CC(C)C1=C2N=C(C=C(N2N=C1)NCC3=CC=CC=C3)NCCCCCCN
# Procedure, shortened: as §1
# [13] = compound: CC(C)C[C@@H](C=O)NC(=O)[C@H](CC(C)C)NC(=O)[C@H](CC(C)C)NC(=O)OCc1ccccc1
# Procedure, shortened: as §1
# pinometostat = compound: CC(C)N(C[C@H]1O[C@@H](n2cnc3c(N)ncnc32)[C@H](O)[C@@H]1O)[C@H]1C[C@@H](CCc2nc3cc(C(C)(C)C)ccc3[nH]2)C1 [pinometostat]
# Procedure, shortened: as §1
# [14] = compound: CC1=C(C(CC(=O)N1)C2=CC=C(C=C2)C(F)(F)F)C(=O)NC3=C(C=C4C(=C3)C=NN4)F
# Procedure, shortened: as §1
# [15] = compound: CC1=C(C2=C(C=C1)C(=O)C3=CC=CC=C3N2CCCN)C
# Procedure, shortened: as §1
Target,log2 fold change (erlotinib),log2 fold change [1],log2 fold change [2],log2 fold change [3],log2 fold change [4],log2 fold change [5],log2 fold change [6],log2 fold change [7],log2 fold change [8],log2 fold change [9],log2 fold change (IRAK-1-4 Inhibitor I),log2 fold change (ibrutinib),log2 fold change [10],log2 fold change (ralimetinib),log2 fold change [11],log2 fold change [12],log2 fold change [13],log2 fold change (pinometostat),log2 fold change [14],log2 fold change [15]
CIB1 isoform 2 (UniProt Q99828),inactive: 0,inactive: 0.025,inactive: 0.148,inactive: 0.015,inactive: 0.05,inactive: -0.005,inactive: -0.026,inactive: 0.04,inactive: -0.102,inactive: -0.121,inactive: 0.019,inactive: 0.056,inactive: 0.035,inactive: -0.012,inactive: -0.066,inactive: -0.064,inactive: 0.035,inactive: -0.091,inactive: -0.052,inactive: 0.172
CKMT2 (UniProt P17540),inactive: 0.012,inactive: -0.024,inactive: -0.087,inactive: -0.023,inactive: 0.013,inactive: -0.169,inactive: -0.008,inactive: 0.081,inactive: 0.022,inactive: 0.068,inactive: 0.056,inactive: 0.086,inactive: -0.07,inactive: 0.048,inactive: 0.002,inactive: 0.039,inactive: 0.019,inactive: 0.029,inactive: 0.011,inactive: -0.077
CHST11 (UniProt Q9NPF2),inactive: -0.061,inactive: 0.082,inactive: 0.046,inactive: -0.054,inactive: -0.118,inactive: 0.007,inactive: 0.161,inactive: 0.057,inactive: 0.002,inactive: -0.067,inactive: -0.002,inactive: -0.032,inactive: 0.063,inactive: -0.406,inactive: 0.057,inactive: -0.257,inactive: -0.17,inactive: 0.084,,inactive: -0.058
CHP1 (UniProt Q99653),inactive: -0.022,inactive: 0.024,inactive: 0.097,inactive: 0.012,inactive: -0.056,inactive: 0.008,active: 0.287,inactive: 0.006,inactive: -0.07,inactive: 0.091,inactive: 0.091,inactive: -0.024,inactive: 0.001,inactive: 0.145,inactive: -0.017,inactive: 0.017,inactive: -0.061,inactive: -0.02,,inactive: -0.047
CNTN4 (UniProt Q8IWV2),inactive: 0.284,active: -0.641,inactive: 0.012,inactive: 0.018,inactive: 0.179,inactive: -0.095,inactive: 0.05,inactive: 0.097,inactive: -0.097,inactive: 0.194,inactive: 0.049,inactive: 0.023,inactive: 0.065,inactive: 0.025,inactive: -0.108,inactive: 0.195,inactive: 0.044,inactive: -0.027,,inactive: 0.137
CNOT4 isoform 6 (UniProt O95628),inactive: 0.004,inactive: 0.06,inactive: 0.026,inactive: 0.014,inactive: 0.03,inactive: 0.003,inactive: -0.007,inactive: -0.043,inactive: -0.011,inactive: 0.044,inactive: 0.044,inactive: 0.016,inactive: -0.062,inactive: -0.048,inactive: 0.002,inactive: 0.038,inactive: -0.019,inactive: -0.025,,inactive: 0.051
CKB (UniProt P12277),inactive: 0.011,inactive: 0.045,inactive: 0.052,inactive: 0.035,inactive: 0.018,inactive: -0.038,inactive: 0.01,inactive: 0.065,inactive: 0.022,inactive: 0.027,inactive: 0.014,inactive: -0.024,inactive: -0.009,inactive: -0.01,inactive: -0.077,inactive: -0.045,inactive: 0.021,inactive: -0.02,,inactive: 0.059
CNN2 (UniProt Q99439),inactive: 0.047,inactive: 0.124,inactive: 0.109,inactive: -0.039,inactive: 0.013,inactive: 0.032,inactive: -0.012,inactive: -0.011,inactive: -0.017,inactive: -0.042,inactive: -0.037,inactive: -0.07,inactive: 0.011,inactive: 0.007,inactive: -0.091,inactive: -0.052,inactive: 0.038,inactive: 0.018,,inactive: 0.007
CHST14 (UniProt Q8NCH0),inactive: 0.085,inactive: 0.052,inactive: -0.001,inactive: -0.016,inactive: 0.01,inactive: 0.083,inactive: -0.059,inactive: -0.064,inactive: 0.039,inactive: 0.078,inactive: 0.023,inactive: -0.063,inactive: -0.023,inactive: -0.029,inactive: -0.19,inactive: -0.008,inactive: -0.07,inactive: 0.052,inactive: 0.066,inactive: -0.007
CIZ1 (UniProt Q9ULV3),inactive: 0.002,inactive: 0.024,inactive: 0.032,inactive: 0.069,inactive: 0.009,inactive: 0.083,inactive: -0.092,inactive: -0.085,inactive: 0.034,inactive: -0.016,inactive: 0.013,inactive: -0.03,inactive: -0.044,inactive: 0.056,inactive: -0.056,inactive: 0.035,inactive: 0.053,inactive: -0.02,,active: -0.248
COA7 (UniProt Q96BR5),inactive: -0.069,inactive: -0.001,inactive: 0.072,inactive: 0.014,inactive: -0.031,inactive: 0.056,inactive: 0.055,inactive: 0.005,inactive: 0.001,inactive: 0.026,inactive: 0.023,inactive: -0.049,inactive: 0.015,inactive: -0.006,inactive: -0.025,inactive: -0.001,inactive: -0.096,inactive: -0.065,inactive: 0.053,inactive: -0.039
COA6 isoform 2 (UniProt Q5JTJ3),inactive: 0.012,inactive: 0.022,inactive: 0.045,inactive: 0.007,inactive: 0.023,inactive: 0.062,inactive: -0.053,inactive: -0.108,inactive: 0.047,inactive: 0.02,inactive: 0.043,inactive: 0.036,inactive: 0.019,inactive: -0.071,inactive: 0.045,inactive: 0.059,inactive: -0.026,inactive: -0.04,,inactive: -0.004
CIT isoform 4 (UniProt O14578),inactive: -0.015,inactive: 0.045,inactive: -0.044,inactive: 0,inactive: -0.176,inactive: 0.13,inactive: -0.027,inactive: -0.002,inactive: -0.037,inactive: 0.021,inactive: -0.013,inactive: -0.057,active: -0.462,inactive: -0.008,inactive: -0.077,inactive: -0.021,inactive: 0.045,inactive: -0.005,,inactive: 0.118
CMTM6 (UniProt Q9NX76),inactive: -0.028,inactive: 0.139,inactive: 0.095,inactive: 0.099,inactive: 0.076,inactive: -0.018,inactive: 0.003,inactive: -0.037,inactive: 0.02,inactive: 0.017,inactive: -0.035,inactive: 0.036,inactive: -0.14,inactive: -0.064,inactive: -0.05,inactive: 0.223,inactive: 0.084,inactive: 0.044,inactive: 0.001,inactive: -0.005
CNDP2 (UniProt Q96KP4),inactive: 0.035,inactive: -0.099,inactive: 0.058,inactive: 0.022,inactive: 0.091,inactive: -0.024,inactive: 0.064,inactive: 0.058,inactive: 0.023,inactive: 0.072,inactive: 0.098,inactive: 0.002,inactive: -0.01,inactive: 0.07,inactive: -0.005,inactive: -0.011,inactive: -0.029,inactive: -0.035,,inactive: 0.042
CIR1 (UniProt Q86X95),inactive: -0.008,inactive: -0.035,inactive: -0.254,inactive: 0.055,inactive: -0.054,inactive: -0.029,inactive: -0.144,inactive: -0.016,inactive: -0.008,inactive: 0.002,inactive: -0.023,inactive: 0.121,inactive: -0.05,inactive: 0.083,inactive: 0.128,inactive: 0.198,inactive: 0.175,inactive: 0.169,,inactive: 0.022
CMTR1 (UniProt Q8N1G2),inactive: -0.005,inactive: 0.105,inactive: 0.031,inactive: 0.013,inactive: 0.048,inactive: 0.012,inactive: 0.012,inactive: 0.036,inactive: 0.01,inactive: 0.018,inactive: -0.007,inactive: -0.011,inactive: -0.014,inactive: -0.026,inactive: -0.024,inactive: -0.011,inactive: -0.002,inactive: -0.029,,inactive: 0.169

# Retrieved one by one from the entries so far:
Target,log2 fold change (erlotinib),log2 fold change [1],log2 fold change [2],log2 fold change [3],log2 fold change [4],log2 fold change [5],log2 fold change [6],log2 fold change [7],log2 fold change [8],log2 fold change [9],log2 fold change (IRAK-1-4 Inhibitor I),log2 fold change (ibrutinib),log2 fold change [10],log2 fold change (ralimetinib),log2 fold change [11],log2 fold change [12],log2 fold change [13],log2 fold change (pinometostat),log2 fold change [14],log2 fold change [15]
COA7 (UniProt Q96BR5),inactive: -0.069,inactive: -0.001,inactive: 0.072,inactive: 0.014,inactive: -0.031,inactive: 0.056,inactive: 0.055,inactive: 0.005,inactive: 0.001,inactive: 0.026,inactive: 0.023,inactive: -0.049,inactive: 0.015,inactive: -0.006,inactive: -0.025,inactive: -0.001,inactive: -0.096,inactive: -0.065,inactive: 0.053,inactive: -0.039
CIZ1 (UniProt Q9ULV3),inactive: 0.002,inactive: 0.024,inactive: 0.032,inactive: 0.069,inactive: 0.009,inactive: 0.083,inactive: -0.092,inactive: -0.085,inactive: 0.034,inactive: -0.016,inactive: 0.013,inactive: -0.03,inactive: -0.044,inactive: 0.056,inactive: -0.056,inactive: 0.035,inactive: 0.053,inactive: -0.02,,active: -0.248
